Results are given in words; binding and its absence hold for the method and conditions named. Some binding calls cover weakened binding; strength is not graded here.
T1: recombinant rPDGFRB ectodomain (rat) (UniProt Q05030)
T1 sequence (looked up): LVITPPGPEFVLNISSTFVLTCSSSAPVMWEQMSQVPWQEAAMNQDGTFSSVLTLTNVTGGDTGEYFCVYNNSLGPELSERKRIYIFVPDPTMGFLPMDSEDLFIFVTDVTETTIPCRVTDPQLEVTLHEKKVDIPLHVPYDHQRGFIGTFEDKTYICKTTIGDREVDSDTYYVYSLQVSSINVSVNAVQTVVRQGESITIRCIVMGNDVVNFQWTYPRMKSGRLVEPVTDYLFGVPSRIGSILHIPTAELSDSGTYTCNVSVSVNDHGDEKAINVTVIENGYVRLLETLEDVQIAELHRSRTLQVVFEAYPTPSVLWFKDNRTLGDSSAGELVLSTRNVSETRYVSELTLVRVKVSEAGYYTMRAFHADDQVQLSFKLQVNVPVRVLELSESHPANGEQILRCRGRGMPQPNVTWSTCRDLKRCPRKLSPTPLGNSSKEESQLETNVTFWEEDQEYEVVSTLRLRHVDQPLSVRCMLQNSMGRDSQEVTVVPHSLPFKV

Sequences of proteins named here, by UniProt entry; tags and fusion partners are left off.
UniProt P11717: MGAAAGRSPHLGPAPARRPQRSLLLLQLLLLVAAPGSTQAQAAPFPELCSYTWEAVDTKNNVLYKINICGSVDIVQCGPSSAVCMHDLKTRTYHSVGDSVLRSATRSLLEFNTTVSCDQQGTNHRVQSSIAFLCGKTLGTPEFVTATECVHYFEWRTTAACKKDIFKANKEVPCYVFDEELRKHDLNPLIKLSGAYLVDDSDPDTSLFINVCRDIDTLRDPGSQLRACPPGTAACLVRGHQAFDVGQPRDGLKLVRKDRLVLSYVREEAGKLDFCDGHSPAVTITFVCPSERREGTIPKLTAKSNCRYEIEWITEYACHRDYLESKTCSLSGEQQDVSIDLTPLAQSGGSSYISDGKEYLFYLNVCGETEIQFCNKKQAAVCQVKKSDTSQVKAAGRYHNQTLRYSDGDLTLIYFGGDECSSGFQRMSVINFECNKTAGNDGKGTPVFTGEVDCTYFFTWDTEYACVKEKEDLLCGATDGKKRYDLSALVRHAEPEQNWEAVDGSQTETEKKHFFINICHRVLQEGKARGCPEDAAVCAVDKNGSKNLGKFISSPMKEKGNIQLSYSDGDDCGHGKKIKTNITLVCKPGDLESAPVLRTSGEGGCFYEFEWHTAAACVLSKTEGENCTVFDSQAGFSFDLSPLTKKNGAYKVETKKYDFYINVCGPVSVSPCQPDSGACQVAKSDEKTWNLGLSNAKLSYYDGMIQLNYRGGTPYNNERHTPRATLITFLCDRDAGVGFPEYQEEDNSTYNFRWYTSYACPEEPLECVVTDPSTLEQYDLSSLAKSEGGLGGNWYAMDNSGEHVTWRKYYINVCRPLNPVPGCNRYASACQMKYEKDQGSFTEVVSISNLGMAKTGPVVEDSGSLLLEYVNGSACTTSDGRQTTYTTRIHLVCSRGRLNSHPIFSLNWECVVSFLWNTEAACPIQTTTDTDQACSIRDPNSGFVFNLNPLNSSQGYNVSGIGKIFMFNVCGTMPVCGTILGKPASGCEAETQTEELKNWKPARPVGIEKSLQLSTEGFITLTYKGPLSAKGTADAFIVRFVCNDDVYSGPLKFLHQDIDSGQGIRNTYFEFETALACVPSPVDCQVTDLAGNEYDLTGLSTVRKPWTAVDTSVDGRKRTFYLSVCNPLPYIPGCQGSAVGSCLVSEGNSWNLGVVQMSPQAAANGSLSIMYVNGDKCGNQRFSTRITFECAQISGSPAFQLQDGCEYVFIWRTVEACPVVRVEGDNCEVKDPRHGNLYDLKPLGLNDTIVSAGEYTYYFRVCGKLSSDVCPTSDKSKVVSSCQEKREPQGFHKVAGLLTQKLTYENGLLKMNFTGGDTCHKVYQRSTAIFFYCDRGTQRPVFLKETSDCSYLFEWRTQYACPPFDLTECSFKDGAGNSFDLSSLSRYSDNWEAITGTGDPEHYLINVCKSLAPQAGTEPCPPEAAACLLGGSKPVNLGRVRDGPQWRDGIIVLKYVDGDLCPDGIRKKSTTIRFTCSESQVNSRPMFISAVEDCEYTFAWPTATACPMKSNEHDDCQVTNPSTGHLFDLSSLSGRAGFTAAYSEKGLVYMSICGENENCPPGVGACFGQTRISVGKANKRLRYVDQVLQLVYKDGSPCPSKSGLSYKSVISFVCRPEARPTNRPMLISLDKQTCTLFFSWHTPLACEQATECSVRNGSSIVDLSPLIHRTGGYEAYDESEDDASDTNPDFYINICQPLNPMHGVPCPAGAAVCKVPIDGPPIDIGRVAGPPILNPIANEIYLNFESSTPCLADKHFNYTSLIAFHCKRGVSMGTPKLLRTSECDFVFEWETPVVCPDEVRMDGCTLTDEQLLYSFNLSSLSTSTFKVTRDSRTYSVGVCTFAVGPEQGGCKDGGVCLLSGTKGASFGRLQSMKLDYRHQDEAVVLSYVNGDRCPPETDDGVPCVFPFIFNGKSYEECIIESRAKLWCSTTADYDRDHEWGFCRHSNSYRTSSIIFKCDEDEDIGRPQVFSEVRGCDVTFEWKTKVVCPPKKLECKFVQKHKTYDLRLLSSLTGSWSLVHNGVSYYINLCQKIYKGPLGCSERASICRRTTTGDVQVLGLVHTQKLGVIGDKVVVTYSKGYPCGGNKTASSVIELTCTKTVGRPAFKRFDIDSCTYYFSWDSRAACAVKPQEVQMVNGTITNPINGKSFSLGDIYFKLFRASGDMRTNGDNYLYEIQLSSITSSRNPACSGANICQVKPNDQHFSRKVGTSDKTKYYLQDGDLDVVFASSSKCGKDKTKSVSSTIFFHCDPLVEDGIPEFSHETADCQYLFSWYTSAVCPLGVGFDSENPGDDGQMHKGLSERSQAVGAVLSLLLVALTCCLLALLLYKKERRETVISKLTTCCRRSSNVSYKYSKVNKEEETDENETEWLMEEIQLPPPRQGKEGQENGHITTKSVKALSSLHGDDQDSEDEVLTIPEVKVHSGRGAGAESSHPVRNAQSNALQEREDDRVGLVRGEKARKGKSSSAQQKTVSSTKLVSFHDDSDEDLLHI

B1: 13A10 (VHH)
VHH: EVQLVESGGGLVQAGGSLRLSCSASGSIFSINYMAWYRQEPGKEREVVASMSWRGDSTYLADSVQGRFTISRNNAKNTMYLQMNSLKPEDTALYYCKANNYWGQGTQVTVSS
B2: SP11P (VHH)
VHH: EVQLVESGGGLVQAGDSLRLSCAASGRTFSSYPIAWFRQAPGKEREFVAAITSSGLTTYYANVVKGRFAISRDNAKDTVYLQMNSLKPEDTAVHYCATSNGFLSGRDIYQHNKYIYWGQGTQVTVSS
B3: SP15P (VHH)
VHH: EVQLVESGGGLVQAGGSLRLSCAASGRAFGGPYMAWFRQTPGKGREFVAAISPSSVYTFYQDSVKGRFTISRDNTKNTAYLQMNSLKPEDTAVYYCAAEAAGEVRLETSYKYWGQGTQVTVSS
B4: SP17P (VHH)
VHH: EVQLVESGGGLVQPGGSLRLSCAASGLTFVNYAMGWFRQAPGKERELVAGIASSGRIYYADSVAGRFTISRDNARNTVNLQMNSMKPEDTAVYYCAGRRSFSSTSAADYNYWGQGTQVTVSS
B5: SP21P (VHH)
VHH: EVQLVESGGGLVQPGGSLRLSCVVSGSSFSSYTMGWFRRAPGKQRELVAGVSTVGDTAAADSVKGRFTISRDNAKNTVYLQMNSLKPEDTAVYYCNTYPHAYLEWGQGTQVTVSS
B6: SP23P (VHH)
VHH: EVQLVESGGELVQAGGSLRLSCAVSGRTLTSYPMGWFRQAPGKEREFVAAISWSGGDTMYADSVKGRFTISRDNSKNTVYLQMNSLKPEDTADYYCARRRYSSGISRHLVDYEYWGQGTQVTVSS
B7: SP25P (VHH)
VHH: EVQLVESGGGLVQPGGSLRLSCAASESIFSINAMGWYRQTPGKQREMVASITPGGFTIYADSVKGRFTISRDNAKNTLYLQMNNLRFEDTAVYYCNAFAGSATSYHDFGSWGQGTQVTVSS
B8: SP29P (VHH)
VHH: EVQLVESGGGLVQAGDSLRLSCTVSGRTFNTYVTGWFRQAPGKEREFVAAIHQIGSTYYRNSVKGRFTISRDGAKDTVYLQMNNLKPEDSAVYYCAAGNGGYVMSDIAYGTWGQGTQVTVSS
B9: SP35P (VHH)
VHH: EVQLVESGGGLVQPGGSLRLSCAASGSLGSNNPMAWYRQAPGKERELVASISSAYRTHYADFVKGRFTISRDSPKNTVSLQMNNLKPEDTAVYYCGIFVSARNYWGKGTQVTVSS
B10: SP32P (VHH)
VHH: EVQLVESGGGTVQAGDSLRLSCTASGRTFSTYTMGWFRQAPGKERVVVAVNTWNNFTVHQPSVKGRFTMSRDNTKNSIYLQMDSLKPEDTAVYYCAASAKGTARYDYWGQGTQVTVSS

Molecular target: recombinant human extracellular domain of IGF2R (human) (UniProt P11717)
Assay: phage ELISA on hIGF2R-ECD

binding, binds:
B1

Molecular target: recombinant hPDGFRB ectodomain (human) (UniProt P09619)
Assay: phage ELISA and binding assay on hPDGFRB-ECD; values only in FIG. 5

binding, binds:
B2
B3
B4
B5
B6

Molecular target: T1, recombinant rPDGFRB ectodomain (rat)
Assay: phage ELISA and binding assay on rPDGFRB-ECD; values only in FIG. 6

binding, binds:
B7
B8
B9
B10

Source: patent US20240325562A1, “INTERNALIZING BINDING MOLECULES” (LinXis B.V., priority 2020, published 2024)
